According to patent US10779537B2, “1H-pyrrolopyridine compound, N-oxide thereof or salt thereof, agricultural and horticultural insecticide comprising the compound, and method for using the insecticide” (Nihon Nohyaku Co., Ltd., priority 2016, dated 2020):
Some of these results come from one statement about several compounds together.

Assays:
Type in all cases: in vivo
[1] = system: Myzus persicae; assay: Test for control efficacy on Myzus persicae (foliar application, potted Chinese cabbage); settings: 500 ppm dispersion in water, foliar application to potted Chinese cabbage, 6 days after application
[2] = system: Laodelphax striatellus; assay: Insecticidal test on Laodelphax striatellus (rice seedling dip); settings: 500 ppm, rice seedlings dipped 30 seconds, ten 3rd-instar larvae, 8 days after inoculation
Excerpt: Insecticidal Test on Laodelphax striatellus
The condensed heterocyclic compounds represented by the general formula (1) of the present invention or salts thereof were separately dispersed in water and diluted to 500 ppm. Rice plant seedlings (variety: Nihonbare) were dipped in the agrochemical dispersions for 30 seconds. After air-dried, each seedling was put into a separate glass test tube and inoculated with ten 3rd-instar larvae of Laodelphax striatellus, and then the glass test tubes were capped with cotton plugs. At 8 days after the inoculation, the numbers of surviving larvae and dead larvae were counted, the corrected mortality rate was calculated according to the formula shown below, and the insecticidal efficacy was evaluated according to the criteria shown below. Corrected mortality rate (%)=100×(Survival rate in a non-treatment plot−Survival rate in a treatment plot)/Survival rate in a non-treatment plot [Math. 2] Corrected Mortality Rate A: the corrected mortality rate is 100%. B: the corrected mortality rate is 90 to 99%. C: the corrected mortality rate is 80 to 89%. D: the corrected mortality rate is 50 to 79%.

[3] = system: Plutella xylostella; assay: Insecticidal test on Plutella xylostella (dip of Chinese cabbage seedlings with laid eggs); settings: 500 ppm, seedlings with laid eggs dipped about 30 seconds, 25° C., 6 days after dip treatment, criteria of Test Example 2
Excerpt: Insecticidal Test on Plutella xylostella
Adults of Plutella xylostella were released onto Chinese cabbage seedlings and allowed to lay eggs thereon. At 2 days after the release of the adults, the Chinese cabbage seedlings with laid eggs were dipped for about 30 seconds in agrochemical dispersions diluted to 500 ppm, each of which contained a different condensed heterocyclic compound represented by the general formula (1) of the present invention as an active ingredient. After air-dried, the seedlings were kept in a thermostatic chamber at 25° C. At 6 days after the dip treatment, the number of hatched larvae per plot was counted, the mortality rate was calculated according to the formula shown below, and the insecticidal efficacy was evaluated according to the criteria of Test Example 2. This test was conducted in triplicate using 10 adults of Plutella xylostella per plot. Corrected mortality rate (%)=100×(Number of hatched larvae in a non-treatment plot−Number of hatched larvae in a treatment plot)/Number of hatched larvae in a non-treatment plot [Math. 3]

SMILES	control efficacy (control rate) [1]	insecticidal efficacy (corrected mortality rate) [2]	insecticidal efficacy (corrected mortality rate, hatched larvae) [3]
CCS(=O)(=O)c1cc(C(F)(F)F)cnc1-c1c(Br)c2ncc(C(F)(F)F)cc2n1C(=O)OC(C)(C)C [Compound 3-2]	A (the control rate is 100%)	A (the corrected mortality rate is 100%)	A (the corrected mortality rate is 100%)
CCS(=O)(=O)c1cc(I)cnc1-c1c(Cl)c2ncc(C(F)(F)F)cc2n1C [Compound 3-4]	A (the control rate is 100%)	A (the corrected mortality rate is 100%)	A (the corrected mortality rate is 100%)
CCS(=O)(=O)c1cc(C2CC2)cnc1-c1c(Cl)c2ncc(C(F)(F)F)cc2n1C [Compound 3-5]	A (the control rate is 100%)	A (the corrected mortality rate is 100%)	A (the corrected mortality rate is 100%)
CCS(=O)(=O)c1cc(-c2ccc(F)cc2)cnc1-c1c(Br)c2ncc(C(F)(F)F)cc2n1C(=O)OC(C)(C)C [Compound 3-6]	A (the control rate is 100%)	A (the corrected mortality rate is 100%)	A (the corrected mortality rate is 100%)
CCS(=O)(=O)c1cc(/C=N/OCC(F)(F)F)cnc1-c1c(Cl)c2ncc(C(F)(F)F)cc2n1CC(F)(F)F [Compound 3-7]	A (the control rate is 100%)	A (the corrected mortality rate is 100%)	A (the corrected mortality rate is 100%)
CCS(=O)(=O)c1cc(/C=N/OCC(F)(F)F)cnc1-c1c(F)c2ncc(C(F)(F)F)cc2n1C(C)=O [Compound 3-8]	A (the control rate is 100%)	A (the corrected mortality rate is 100%)	A (the corrected mortality rate is 100%)
CCS(=O)(=O)c1cc(-c2cccc(C(F)(F)F)c2)cnc1-c1c(F)c2ncc(C(F)(F)F)cc2n1C(C)=O [Compound 3-9]	A (the control rate is 100%)	A (the corrected mortality rate is 100%)	A (the corrected mortality rate is 100%)
CCS(=O)(=O)c1cc(-c2ccc(F)cc2)cnc1-c1c(F)c2ncc(C(F)(F)F)cc2n1C(C)=O [Compound 3-10]	A (the control rate is 100%)	A (the corrected mortality rate is 100%)	A (the corrected mortality rate is 100%)
CCS(=O)(=O)c1cc(-c2cccc(C#N)c2)cnc1-c1c(Cl)c2ncc(C(F)(F)F)cc2n1C(C)=O [Compound 3-11]	A (the control rate is 100%)	A (the corrected mortality rate is 100%)	A (the corrected mortality rate is 100%)
CCS(=O)(=O)c1cc(OCC(F)(F)F)cnc1-c1c(Cl)c2ncc(C(F)(F)F)cc2n1C(C)=O [Compound 3-13]	A (the control rate is 100%)	A (the corrected mortality rate is 100%)	A (the corrected mortality rate is 100%)
CCS(=O)(=O)c1cc(-c2ccc(F)cc2)cnc1-c1c(Cl)c2ncc(C(F)(F)F)cc2n1COC [Compound 3-14]	A (the control rate is 100%)	A (the corrected mortality rate is 100%)	A (the corrected mortality rate is 100%)
CCS(=O)(=O)c1cc(-c2ccc(F)cc2)cnc1-c1c(Cl)c2ncc(C(F)(F)F)cc2n1CSC [Compound 3-15]	A (the control rate is 100%)	A (the corrected mortality rate is 100%)	A (the corrected mortality rate is 100%)
